Assay: general procedure: Fmoc solid-phase peptide synthesis; NovaSyn TGR; HBTU/NMM
Settings: whole synthesis, scale 0.1 mmol

TKFTLSLDVPTNIMNLLFNIAKAKNLRCQAAANAHLMAQI-NH2
crude mass: 408 mg
crude yield: 92% yield
